Reference: patent US7235380
Residue numbers refer to the chain shown, from its start. Results are given in words; binding and its absence hold for the method and conditions named. Some entries that bind do so weakly or less than the wild type.

By UniProt entry, the sequences of proteins in these tests, tags left out. Residues count along the entry.
UniProt P13726, residues 33-295: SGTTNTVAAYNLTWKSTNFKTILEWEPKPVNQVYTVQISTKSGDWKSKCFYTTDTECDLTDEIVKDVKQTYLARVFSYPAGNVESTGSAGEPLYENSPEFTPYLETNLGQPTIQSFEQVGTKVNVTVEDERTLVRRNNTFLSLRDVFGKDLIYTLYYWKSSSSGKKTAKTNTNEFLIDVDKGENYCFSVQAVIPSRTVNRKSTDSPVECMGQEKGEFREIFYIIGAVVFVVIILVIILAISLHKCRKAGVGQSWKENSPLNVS

B1: CDR-grafted antibody TF8HCDR1×TF8LCDR1 (antibody, human IgG4, V domains shown)
VH: QVQLVQSGGGVVQPGRLLRLSCKASGFNIKDYYMHWVRQAPGKGLEWIGLIDPENGNTIYDPKFQGRFSISADTSKNTAFLQMDSLRPEDTAVYYCARDNSYYFDYWGQGTPVTVSS
VL: DIQMTQSPSSLSASVGDRVTITCKASQDIRKYLNWYQQKPWKAPKTLIYYATSLADGVPSRFSGSGSGTDYTFTISSLQPEDIATYYCLQHGESPYTFGQGTKLEITR
B2: TF8HCDR20 in combination with TF8LCDR1 (antibody, human IgG4, V domains shown)
VH: B1 VH with Q6E, L17S, S69T, T74N, A79L
VL: B1 VL

Key:
[1] = molecular target: human tissue factor (human) (UniProt P13726); test: ELISA, TF immobilized on a microtiter plate, COS supernatant, anti-human kappa-HRP detection
[2] = molecular target: human tissue factor (human) (UniProt P13726); test: ELISA on plate-coated TF (FIG. 3)
[3] = molecular target: human tissue factor (human) (UniProt P13726); test: direct and competition ELISA on plate-coated TF
[4] = molecular target: human tissue factor (human) (UniProt P13726); test: ELISA on plate-coated TF, COS supernatants

Row | Binder | binding [1] | binding [2] | binding [3] | binding [4]
1 | B1 | binds | binds | binds | 
2 | B2 |  |  |  | binds
